# Reference: paper PMC6143786
# These are yes or no findings as the source states them, for the method shown. Binding seen in cells or lysates may run through a third protein. Some entries that bind do so weakly or less than the wild type.
# B1: Ambra-1, Q9C0C7 1-1298 (protein)
# chain: MKVVPEKNAVRILWGRERGARAMGAQRLLQELVEDKTRWMKWEGKRVELPDSPRSTFLLAFSPDRTLLASTHVNHNIYITEVKTGKCVHSLIGHRRTPWCVTFHPTISGLIASGCLDGEVRIWDLHGGSESWFTDSNNAIASLAFHPTAQLLLIATANEIHFWDWSRREPFAVVKTASEMERVRLVRFDPLGHYLLTAIVNPSNQQGDDEPEIPIDGTELSHYRQRALLQSQPVRRTPLLHNFLHMLSSRSSGIQVGEQSTVQDSATPSPPPPPPQPSTERPRTSAYIRLRQRVSYPTAECCQHLGILCLCSRCSGTRVPSLLPHQDSVPPASARATTPSFSFVQTEPFHPPEQASSTQQDQGLLNRPSAFSTVQSSTAGNTLRNLSLGPTRRSLGGPLSSHPSRYHREIAPGLTGSEWTRTVLSLNSRSEAESMPPPRTSASSVSLLSVLRQQEGGSQASVYTSATEGRGFPASGLATESDGGNGSSQNNSGSIRHELQCDLRRFFLEYDRLQELDQSLSGEAPQTQQAQEMLNNNIESERPGPSHQPTPHSSENNSNLSRGHLNRCRACHNLLTFNNDTLRWERTTPNYSSGEASSSWQVPSSFESVPSSGSQLPPLERTEGQTPSSSRLELSSSASPQEERTVGVAFNQETGHWERIYTQSSRSGTVSQEALHQDMPEESSEEDSLRRRLLESSLISLSRYDGAGSREHPIYPDPARLSPAAYYAQRMIQYLSRRDSIRQRSMRYQQNRLRSSTSSSSSDNQGPSVEGTDLEFEDFEDNGDRSRHRAPRNARMSAPSLGRFVPRRFLLPEYLPYAGIFHERGQPGLATHSSVNRVLAGAVIGDGQSAVASNIANTTYRLQWWDFTKFDLPEISNASVNVLVQNCKIYNDASCDISADGQLLAAFIPSSQRGFPDEGILAVYSLAPHNLGEMLYTKRFGPNAISVSLSPMGRYVMVGLASRRILLHPSTEHMVAQVFRLQQAHGGETSMRRVFNVLYPMPADQRRHVSINSARWLPEPGLGLAYGTNKGDLVICRPEALNSGVEYYWDQLNETVFTVHSNSRSSERPGTSRATWRTDRDMGLMNAIGLQPRNPATSVTSQGTQTLALQLQNAETQTEREVPEPGTAASGPGEGEGSEYGASGEDALSRIQRLMAEGGMTAVVQREQSTTMASMGGFGNNIIVSHRIHRSSQTGTEPGAAHTSSPQPSTSRGLLPEAGQLAERGLSPRTASWDQPGTPGREPTQPTLPSSSPVPIPVSLPSAEGPTLHCELTNNNHLLDGGSSRGDAAGPRGEPRNR
# Target: V5-Beclin-1, Q14457
# Assay: co-IP
# Details: remark: other sources report otherwise
binder,measurement,value
B1,binding,binds
